Measurements as given in paper PMC12032420.
Results are given in words; binding and its absence hold for the method and conditions named. Binding seen in cells or lysates may run through a third protein. Some entries that bind do so weakly or less than the wild type.

Protein sequences, listed by entry. Tags and fused reporters are not part of them. Lines headed by an entry give the natural chain unless they say otherwise; changes in a name come on top.
UniProt Q09472: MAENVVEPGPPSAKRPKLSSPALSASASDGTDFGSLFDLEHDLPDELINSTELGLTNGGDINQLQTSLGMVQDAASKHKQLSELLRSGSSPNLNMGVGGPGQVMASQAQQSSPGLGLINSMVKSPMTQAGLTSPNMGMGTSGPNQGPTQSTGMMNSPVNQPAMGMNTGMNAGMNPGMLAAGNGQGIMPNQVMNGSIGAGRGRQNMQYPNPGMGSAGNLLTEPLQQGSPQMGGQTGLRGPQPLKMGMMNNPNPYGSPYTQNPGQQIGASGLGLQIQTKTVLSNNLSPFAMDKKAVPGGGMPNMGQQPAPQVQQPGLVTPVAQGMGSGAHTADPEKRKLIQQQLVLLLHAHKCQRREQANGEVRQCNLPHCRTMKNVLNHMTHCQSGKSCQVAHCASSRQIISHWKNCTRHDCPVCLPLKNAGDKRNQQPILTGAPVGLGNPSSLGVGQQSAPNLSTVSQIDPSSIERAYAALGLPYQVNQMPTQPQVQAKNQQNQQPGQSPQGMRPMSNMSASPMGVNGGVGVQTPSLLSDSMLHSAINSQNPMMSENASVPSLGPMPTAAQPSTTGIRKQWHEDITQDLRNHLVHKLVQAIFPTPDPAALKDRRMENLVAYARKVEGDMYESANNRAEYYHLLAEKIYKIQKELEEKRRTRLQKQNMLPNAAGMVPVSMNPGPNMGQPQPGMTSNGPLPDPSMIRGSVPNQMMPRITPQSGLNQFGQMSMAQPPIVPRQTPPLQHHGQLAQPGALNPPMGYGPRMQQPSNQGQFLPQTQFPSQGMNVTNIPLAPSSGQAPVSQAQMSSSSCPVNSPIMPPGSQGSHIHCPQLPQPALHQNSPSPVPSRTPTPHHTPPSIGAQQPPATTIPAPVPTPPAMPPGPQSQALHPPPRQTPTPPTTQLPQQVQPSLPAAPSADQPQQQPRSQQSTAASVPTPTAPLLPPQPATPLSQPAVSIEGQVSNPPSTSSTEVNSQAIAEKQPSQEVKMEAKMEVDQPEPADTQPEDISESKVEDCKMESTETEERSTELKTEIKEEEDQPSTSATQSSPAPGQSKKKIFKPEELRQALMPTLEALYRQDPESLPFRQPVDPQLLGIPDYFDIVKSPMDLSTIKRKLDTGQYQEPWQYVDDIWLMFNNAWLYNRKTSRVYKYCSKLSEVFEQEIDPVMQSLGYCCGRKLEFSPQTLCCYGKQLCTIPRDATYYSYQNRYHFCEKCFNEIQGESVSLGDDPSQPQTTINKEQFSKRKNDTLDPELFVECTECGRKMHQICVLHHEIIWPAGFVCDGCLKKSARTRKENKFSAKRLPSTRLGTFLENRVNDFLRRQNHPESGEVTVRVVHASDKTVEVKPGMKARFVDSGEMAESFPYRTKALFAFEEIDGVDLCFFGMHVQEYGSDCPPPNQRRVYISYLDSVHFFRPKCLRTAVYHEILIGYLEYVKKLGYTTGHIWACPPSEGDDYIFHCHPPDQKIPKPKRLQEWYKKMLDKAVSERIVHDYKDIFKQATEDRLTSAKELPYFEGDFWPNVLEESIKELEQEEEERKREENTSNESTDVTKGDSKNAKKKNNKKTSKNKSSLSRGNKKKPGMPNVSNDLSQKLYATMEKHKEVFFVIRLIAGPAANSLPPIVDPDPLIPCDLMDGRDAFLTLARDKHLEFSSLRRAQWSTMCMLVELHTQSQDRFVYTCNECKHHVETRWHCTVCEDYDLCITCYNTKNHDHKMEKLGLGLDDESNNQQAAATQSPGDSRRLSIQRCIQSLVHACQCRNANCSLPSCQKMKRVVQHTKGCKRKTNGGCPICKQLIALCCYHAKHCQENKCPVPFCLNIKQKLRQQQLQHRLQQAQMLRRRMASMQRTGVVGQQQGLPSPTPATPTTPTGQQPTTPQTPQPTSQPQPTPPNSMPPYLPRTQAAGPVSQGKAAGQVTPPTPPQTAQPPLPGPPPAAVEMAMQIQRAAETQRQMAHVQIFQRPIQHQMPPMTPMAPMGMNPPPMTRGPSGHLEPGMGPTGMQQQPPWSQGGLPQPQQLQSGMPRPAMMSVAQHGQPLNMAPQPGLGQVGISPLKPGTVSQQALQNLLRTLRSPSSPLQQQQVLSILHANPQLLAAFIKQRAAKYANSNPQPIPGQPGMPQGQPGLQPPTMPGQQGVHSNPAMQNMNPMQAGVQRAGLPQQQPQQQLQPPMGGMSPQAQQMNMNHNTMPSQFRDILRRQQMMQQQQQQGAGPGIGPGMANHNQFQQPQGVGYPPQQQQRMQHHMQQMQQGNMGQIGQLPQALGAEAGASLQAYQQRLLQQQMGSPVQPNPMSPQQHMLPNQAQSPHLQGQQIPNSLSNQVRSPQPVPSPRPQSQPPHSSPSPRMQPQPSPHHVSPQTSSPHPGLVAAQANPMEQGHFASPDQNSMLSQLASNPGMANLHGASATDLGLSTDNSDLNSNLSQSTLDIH
UniProt P01106: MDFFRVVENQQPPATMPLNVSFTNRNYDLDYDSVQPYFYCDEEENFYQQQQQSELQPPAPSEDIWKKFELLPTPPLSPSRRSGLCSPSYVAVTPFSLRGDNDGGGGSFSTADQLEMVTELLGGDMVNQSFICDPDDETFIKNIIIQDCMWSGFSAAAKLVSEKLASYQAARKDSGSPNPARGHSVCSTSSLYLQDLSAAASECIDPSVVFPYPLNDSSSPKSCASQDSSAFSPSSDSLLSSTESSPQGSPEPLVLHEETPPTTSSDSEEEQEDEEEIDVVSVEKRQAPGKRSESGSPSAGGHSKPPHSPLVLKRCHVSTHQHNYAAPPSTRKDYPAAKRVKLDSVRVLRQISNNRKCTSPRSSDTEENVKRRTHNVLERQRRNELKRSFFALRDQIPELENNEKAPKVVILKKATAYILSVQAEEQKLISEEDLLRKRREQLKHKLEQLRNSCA

Target: E1A binding protein P300 (human (endogenous in MV-4-11 and MOLM-13)) (UniProt Q09472)
Test: co-IP; lysates of MV-4-11 and MOLM-13 cells (NP40 buffer: 50 mM Tris-HCl pH 7.4, 150 mM NaCl, 1% Nonidet P40, 5 mM EDTA), treated with or without 1 nM quizartinib for 12 h; immunoprecipitated with anti-p300 or control IgG overnight at 4 °C, protein A/G agarose; c-Myc detected by Western blotting

binding: binds
Substance: c-Myc (from UniProt P01106 1-454)
